Results from PubChem BioAssay AID1671190 (National Center for Advancing Translational Sciences (NCATS), 2021).
“And” between values parts separate entries of the source, which are not always exact repeats. Equal values may be shown once. Hit rate of the full screen: of about 580,000 compounds, about 6,100 (1.1%) were called active. This list was built around the results that the source calls inconclusive (neither active nor inactive); the mix of calls is not that of the screen. Calls follow the shape of the dose curve; as a rule, active = well fitted inhibition curve with a large enough effect; inconclusive = small, poorly fitted or top-dose-only effect, or another doubt; inactive = no such curve, though single readings can be large or run the other way. Potencies beside an inconclusive call are fits to weak or partial responses and may not hold up.
% is scaled to controls: 0 for no effect and ±100 for the full control effect; potency is read from the fitted curve at half-maximal effect.

The chains behind the UniProt entries cited, without tags or fusion partners.
UniProt P18054, whole entry, looked up: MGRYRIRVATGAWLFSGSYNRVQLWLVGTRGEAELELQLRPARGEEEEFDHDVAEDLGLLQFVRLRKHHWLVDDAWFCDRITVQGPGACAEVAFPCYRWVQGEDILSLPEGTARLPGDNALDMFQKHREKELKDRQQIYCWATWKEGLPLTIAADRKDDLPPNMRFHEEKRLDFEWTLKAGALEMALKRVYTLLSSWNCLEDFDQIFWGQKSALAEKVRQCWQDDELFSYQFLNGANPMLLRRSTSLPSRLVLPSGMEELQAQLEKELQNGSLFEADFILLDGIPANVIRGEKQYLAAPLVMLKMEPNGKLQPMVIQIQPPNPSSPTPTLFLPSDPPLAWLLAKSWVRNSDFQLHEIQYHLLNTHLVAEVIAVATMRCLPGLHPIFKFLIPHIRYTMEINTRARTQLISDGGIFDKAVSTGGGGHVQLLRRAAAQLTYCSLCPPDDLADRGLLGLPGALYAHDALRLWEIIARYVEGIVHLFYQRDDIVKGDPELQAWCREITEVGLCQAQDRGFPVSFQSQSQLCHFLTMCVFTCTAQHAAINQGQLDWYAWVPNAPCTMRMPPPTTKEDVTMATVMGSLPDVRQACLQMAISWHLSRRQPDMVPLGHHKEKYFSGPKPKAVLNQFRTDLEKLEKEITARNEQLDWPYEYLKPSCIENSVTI

These compounds were tested against Polyunsaturated fatty acid lipoxygenase ALOX12 (Homo sapiens) (UniProt P18054) (assay: Primary qHTS assay for inhibitors of human arachidonate 12S-lipoxygenase (ALOX12): Round 2). Settings: purified 12hLO, xylenol orange hydroperoxide absorbance; activity change, negative = inhibition: at 108 µM (top of the series) unless noted.
Outline: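 Purified human 12hLO at 150 nM in 25 mM Hepes, 0.01% Triton X-100, pH 7.0, preincubated 15 min at room temperature with compound. Reaction started with 40 uM arachidonic acid, 30 min at room temperature. Hydroperoxide measured by Fe-xylenol orange, 573/405 nm absorbance ratio.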
In the case of `COc1ccc(N2C(=O)c3cc4occc4n3CC2(C)C(=O)NC2CCCCCC2)cc1OC` (stereo unspecified), the Potency was inconclusive: 50.1 µM [inhibitor, partial curve, poor fit]. In the case of `CCOc1ccc(NS(=O)(=O)c2ccc(-c3cc(C)no3)s2)cc1`, the Potency was inconclusive: 50.1 µM [inhibitor, partial curve, poor fit]. `Cc1ccc(C)c(NC(=O)c2cnn(-c3cccc(F)c3)c2C2CCN(C(=O)OC(C)(C)C)CC2)c1` was tested, and the Potency was inconclusive: 112 µM [inhibitor, partial curve, poor fit]. With `COc1ccc(/C=N/Nc2ccccn2)cc1O` the Potency was “inactive”. For `COc1cccc(-c2ccnc3c2c(=O)[nH]c(=O)n3Cc2ccco2)c1`, the Potency was inconclusive: 12.6 µM [inhibitor, partial curve, poor fit]. In the case of `CC1(C)CC(NS(=O)(=O)OCC(Cl)(Cl)Cl)c2cc(C#N)ccc2O1` (stereo unspecified), the Potency was inconclusive: 35.5 µM [inhibitor, partial curve]. For `CC(=O)c1cccc(OCC(O)COc2cc3sc(C)nc3c3sccc23)c1` (stereo unspecified), the Potency was inconclusive: 4.47 µM [inhibitor, full curve, poor fit]. In the case of `COc1ccc(-c2c(-c3ccc(O)cc3O)n[nH]c2C)cc1`, the Potency was inconclusive: 28 µM [inhibitor, partial curve]. In the case of `CC(=O)Oc1ccc2c(C)c(CC(=O)NCCc3ccc(Cl)cc3)c(=O)oc2c1OC(C)=O`, the Potency was inconclusive: 0.562 µM [inhibitor, full curve, poor fit]. With `COc1ccc(S(=O)(=O)Nc2ccc3c(c2)C(=O)N([C@@H](C)CO)C[C@@H](C)[C@H](CN(C)C(=O)CCCN(C)C)OCCCC[C@H](C)O3)cc1` the Potency was inconclusive: 50.1 µM [inhibitor, partial curve, poor fit]. `N#Cc1ccc(/C=C/c2ccc3c([N+](=O)[O-])cccc3n2)cc1` was tested, and the Potency was inconclusive: 1.41 µM [inhibitor, full curve, poor fit]. In the case of `O=C(O)CCc1ccc(-c2cccs2)n1NC(=O)c1ccc(Cl)cc1`, the Potency was inconclusive: 50.1 µM [inhibitor, partial curve, poor fit]. With `Cc1sc2nc3ccc(N4CCCCC4)nn3c(=O)c2c1C` the Potency was inconclusive: 25.1 µM [inhibitor, partial curve, poor fit]. With `O=C(O)c1ccc(N/N=C/c2cc(Br)cs2)cc1` the Potency was inconclusive: 70.8 µM [inhibitor, partial curve, poor fit]. In the case of `Cc1ccc([N+](=O)[O-])c(-c2n[nH]c(=S)n2-c2cccc(Cl)c2)c1`, the Potency was inconclusive: 4.47 µM [inhibitor, full curve, poor fit]. With `CC(=O)c1ccc(F)c(-c2cc(C)cc3c2OC(CNC(=O)Cc2ccc4c(c2)OCO4)C3)c1` (stereo unspecified) the Potency was inconclusive: 112 µM [inhibitor, single point]. With `CCCCNc1nc2c(c(=O)n(Cc3ccc(Cl)cc3)c(=O)n2C)n1C` the Potency was inconclusive: 89.1 µM [inhibitor, partial curve, poor fit]. `O=C(COc1ccccc1Cl)Nc1ccc2[nH]c(=O)[nH]c2c1` was tested, and the Potency was inconclusive: 50.1 µM [inhibitor, partial curve, poor fit]. With `CC(=O)NC(=S)Nc1cccc2ccc(C)nc12` the Potency was “inactive”. For `O=C(NC1CCCCCCC1)c1cc(COc2ccc3ncccc3c2)on1`, the Potency was “inactive”. For `COC(=O)c1ccc(CSc2nc3c([nH]c4ccccc43)c(=O)n2-c2ccc(Cl)cc2)o1`, the Potency was “inactive”. With `NNc1ccc(Cl)nn1` the Potency was inconclusive: 2 µM [inhibitor, partial curve, poor fit]. In the case of `Nc1nnc2c(n1)[nH]c1ccccc12`, the Potency was inconclusive: 0.708 µM [inhibitor, full curve, poor fit]. `Clc1cccc(-c2ccc(/C=N/n3cnnc3)o2)c1Cl` was tested, and the Potency was “inactive”. With `COc1cccc(N2CCN(C(=O)c3cc4ccc(OC)cc4[nH]3)CC2)c1` the Potency was inconclusive: 28.2 µM [inhibitor, partial curve, poor fit]. With `CCCn1c(SCC(=O)Nc2nnc(CC)s2)nnc1-c1ccncc1` the Potency was inconclusive: 100 µM [inhibitor, partial curve, poor fit]. In the case of `O=C(NNS(=O)(=O)c1ccccc1)C1CCN(S(=O)(=O)c2ccccc2)CC1`, the Potency was inconclusive: 22.4 µM [inhibitor, partial curve, poor fit]. In the case of `COc1ccc(CN2CCN(Cc3cc(=O)oc4cc(C)ccc34)CC2)c(OC)c1OC`, the Potency was “inactive and inconclusive: 56.2 µM [inhibitor, partial curve, poor fit]”. With `CCCCN(C)C(=O)c1ccc(S(=O)(=O)N2CCOCC2)cc1` the Potency was “inactive”. With `COc1ccc(-c2c(NC(=O)c3ccco3)n(-c3ccccc3)nc(C)c2=O)cc1` the Potency was inconclusive: 1.58 µM [inhibitor, full curve, poor fit]. For `O=C(Nc1ccc(S(=O)(=O)Nc2ncccn2)cc1)c1cncc(Br)c1`, the Potency was “inactive”. For `CN(C)c1ccc(NC(=O)CSc2nc(N)c(C(=O)Nc3ccc(N(C)C)cc3)s2)cc1`, the Potency was inconclusive: 112 µM [inhibitor, partial curve, poor fit]. `Cc1cccc(CSCc2ccc(-c3nc(-c4ccc(Br)cc4)no3)o2)c1` was tested, and the Potency was active: 3.55 µM. With `CNc1oc(-c2ccccc2Cl)nc1P(=O)(c1ccccc1)c1ccccc1` the Potency was inconclusive: 70.8 µM [inhibitor, partial curve, poor fit]. With `O=C(OCC(c1ccccc1)c1ccccc1)c1cccnc1` the Potency was “inactive”. In the case of `COc1ccc2c3c([nH]c2c1)[C@@H](CO)N(C(=O)CC1CC1)CC31CCN(Cc2ccncc2)CC1`, the Potency was inconclusive: 44.7 µM [inhibitor, partial curve, poor fit]. In the case of `Cn1c(=O)c2[nH]c(-c3ccccc3Cl)nc2n(C)c1=O`, the Potency was inconclusive: 22.4 µM [inhibitor, full curve, poor fit]. For `COc1ccc(CC(=O)Nc2nn(C)c3nc4c(C)cccc4cc23)cc1`, the Potency was inconclusive: 112 µM [inhibitor, single point]. For `CSc1cccc(NC(=O)N[C@H]2CCN3C(=O)[C@H](CC4CCCCC4)NC(=O)[C@@H]3C2)c1`, the Potency was inconclusive: 39.8 µM [inhibitor, partial curve, poor fit]. For `CC(=O)NC1(C)CCN(Cc2ccc(-c3ccc4c(ccn4C)c3)cc2)C1` (stereo unspecified), the Potency was inconclusive: 56.2 µM [inhibitor, full curve]. For `O=c1c2ccccc2nc2sc(Nc3ccc(F)cc3)nn12`, the Potency was inconclusive: 11.2 µM [inhibitor, partial curve, poor fit]. `CCc1c(C)sc(NC(C)=O)c1C#N` was tested, and the Potency was active: 31.6 µM. For `CC(C)c1cccc(NC(=O)CC2(C(=O)O)CCCC2)c1`, the Potency was “inactive”. For `S=C(NCc1ccco1)N1CCN(Cc2ccco2)CC1`, the Potency was inconclusive: 0.708 µM [inhibitor, full curve]. With `O=C(CCC1CCCN(S(=O)(=O)c2ccccc2F)C1)NCCc1ccccc1` (stereo unspecified) the Potency was “inactive”. With `COc1cc(C(=O)Oc2ccc3ccc(O)cc3c2)cc(OC)c1OC` the Potency was inconclusive: 100 µM [inhibitor, single point]. With `CCCCCn1nc(C(=O)NCCN(C)CCOC)c2ccccc2c1=O` the Potency was “inactive”. In the case of `O=C(O)C(c1c[nH]c2cc(Br)ccc12)N1CCN(c2ncc(Br)cn2)CC1` (stereo unspecified), the Potency was inconclusive: 44.7 µM [inhibitor, partial curve, poor fit]. In the case of `CCNc1c(NC(=O)c2cc(OC)cc(OC)c2)c(=O)oc2ccccc12`, the Potency was “inactive”. With `CC(=O)c1ccc(CCCCCCCCCC(=O)O)s1` the Potency was “inactive”. In the case of `Cc1ccc(CNC(=O)CCS(=O)(=O)c2cc(Br)cc3c2N(C(=O)C2CC2)CC3)o1`, the Potency was “inactive”. `CCCCC(=O)OC1CCC2C3CCc4cc(O)ccc4C3CCC12C` (stereo unspecified) was tested, and the Potency was inconclusive: 44.7 µM [inhibitor, partial curve, poor fit]. In the case of `Cn1c(-c2ccc3c(c2)OCO3)cnc1NCc1cccc(O)c1`, the Potency was active: 11.2 µM. `Cc1cc(/C(=N/O)C(C)(C)NO)ccc1Cl` was tested, and the Potency was inconclusive: 4.47 µM [inhibitor, full curve, poor fit]. In the case of `S=c1[nH]nc(COc2ccccc2)n1/N=C/c1cccc(Cl)c1Cl`, the Potency was inconclusive: 31.6 µM [inhibitor, partial curve]. For `CC(=O)N(C(C)=O)N1C(=O)c2cccc3c(N4CCOCC4)ccc(c23)C1=O`, the Potency was “inactive”. For `CC(=O)c1c[nH]c2cc(C#N)ccc12`, the Potency was “inactive”. With `CN1CCN(CC(=O)n2c3c(c4ccccc42)CCCC3)CC1` the Potency was inconclusive: 4.47 µM [inhibitor, full curve, poor fit]. For `COc1ccc(CNC(=O)CN(Cc2ccc(Cl)cc2)C(=O)c2csnn2)cc1`, the activity change, negative = inhibition was inconclusive: -31.6% [inhibitor]. For `O=C(NCc1nnc(SCC(=O)N2CCN(c3ccccc3)CC2)o1)c1ccc(F)cc1`, the Potency was “inactive”. For `CC(C)CCN1CCC2(CC1)CN[S+](=O)([O-])c1cccnc1O2`, the activity change, negative = inhibition was inactive: 5.54% [at 6.33 µM]. With `CCOc1ccc(CC(=O)N2CC(c3nnc(-c4ccncc4)o3)C3(CCOCC3)C2)cc1` (stereo unspecified) the Potency was “inactive”. For `COc1ccc(NC(=O)CN(C)C(=O)CCCc2c[nH]c3ccccc23)cc1`, the Potency was “inactive”. In the case of `Cn1c(SCc2cccc(Br)c2)nnc1-c1ccccn1`, the Potency was “inactive”. `CCc1cccc(NC(=O)CSCc2nc3sc(C)c(C)c3c(=O)[nH]2)c1` was tested, and the Potency was inconclusive: 63.1 µM [inhibitor, partial curve, poor fit]. `CCOC(=O)Cc1csc(NC(=O)c2ccc(C)c(S(=O)(=O)N3CCOCC3)c2)n1` was tested, and the Potency was inconclusive: 100 µM [inhibitor, single point].
